## Library screen at single concentrations

By UniProt entry, the sequences of proteins in these tests, tags left out.
UniProt P9WFT3, whole entry: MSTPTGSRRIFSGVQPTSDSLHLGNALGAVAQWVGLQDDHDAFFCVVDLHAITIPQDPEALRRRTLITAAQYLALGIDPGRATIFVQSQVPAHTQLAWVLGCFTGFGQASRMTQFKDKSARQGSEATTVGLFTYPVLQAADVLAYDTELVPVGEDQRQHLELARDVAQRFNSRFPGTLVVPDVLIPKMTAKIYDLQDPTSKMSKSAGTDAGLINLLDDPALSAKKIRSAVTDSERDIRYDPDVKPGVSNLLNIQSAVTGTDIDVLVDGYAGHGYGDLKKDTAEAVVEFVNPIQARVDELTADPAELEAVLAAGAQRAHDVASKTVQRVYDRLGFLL
UniProt P9WPC5, whole entry: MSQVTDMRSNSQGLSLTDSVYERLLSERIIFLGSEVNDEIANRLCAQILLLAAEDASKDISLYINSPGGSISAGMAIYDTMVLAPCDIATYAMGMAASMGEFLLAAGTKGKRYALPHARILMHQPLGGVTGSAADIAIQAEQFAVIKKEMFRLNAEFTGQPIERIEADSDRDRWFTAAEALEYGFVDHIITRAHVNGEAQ
UniProt P9WPC3, whole entry partner: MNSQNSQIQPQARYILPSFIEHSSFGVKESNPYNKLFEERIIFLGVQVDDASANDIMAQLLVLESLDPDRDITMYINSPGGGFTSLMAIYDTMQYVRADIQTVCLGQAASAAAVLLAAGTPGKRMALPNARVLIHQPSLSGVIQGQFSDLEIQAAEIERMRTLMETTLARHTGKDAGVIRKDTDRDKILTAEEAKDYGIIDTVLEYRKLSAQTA
UniProt P9WNZ1, whole entry: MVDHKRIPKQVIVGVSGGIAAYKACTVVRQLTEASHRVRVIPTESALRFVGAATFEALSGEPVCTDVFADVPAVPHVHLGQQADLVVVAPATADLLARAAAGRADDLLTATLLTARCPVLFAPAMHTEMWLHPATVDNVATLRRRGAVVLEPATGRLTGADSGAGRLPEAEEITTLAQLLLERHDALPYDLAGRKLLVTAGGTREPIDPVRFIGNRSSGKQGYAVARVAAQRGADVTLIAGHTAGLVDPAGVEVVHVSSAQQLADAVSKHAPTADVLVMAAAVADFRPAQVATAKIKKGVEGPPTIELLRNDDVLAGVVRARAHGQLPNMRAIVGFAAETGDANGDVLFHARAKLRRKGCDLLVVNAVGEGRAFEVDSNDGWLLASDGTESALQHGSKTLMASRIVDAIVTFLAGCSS
UniProt I6X8D2, whole entry: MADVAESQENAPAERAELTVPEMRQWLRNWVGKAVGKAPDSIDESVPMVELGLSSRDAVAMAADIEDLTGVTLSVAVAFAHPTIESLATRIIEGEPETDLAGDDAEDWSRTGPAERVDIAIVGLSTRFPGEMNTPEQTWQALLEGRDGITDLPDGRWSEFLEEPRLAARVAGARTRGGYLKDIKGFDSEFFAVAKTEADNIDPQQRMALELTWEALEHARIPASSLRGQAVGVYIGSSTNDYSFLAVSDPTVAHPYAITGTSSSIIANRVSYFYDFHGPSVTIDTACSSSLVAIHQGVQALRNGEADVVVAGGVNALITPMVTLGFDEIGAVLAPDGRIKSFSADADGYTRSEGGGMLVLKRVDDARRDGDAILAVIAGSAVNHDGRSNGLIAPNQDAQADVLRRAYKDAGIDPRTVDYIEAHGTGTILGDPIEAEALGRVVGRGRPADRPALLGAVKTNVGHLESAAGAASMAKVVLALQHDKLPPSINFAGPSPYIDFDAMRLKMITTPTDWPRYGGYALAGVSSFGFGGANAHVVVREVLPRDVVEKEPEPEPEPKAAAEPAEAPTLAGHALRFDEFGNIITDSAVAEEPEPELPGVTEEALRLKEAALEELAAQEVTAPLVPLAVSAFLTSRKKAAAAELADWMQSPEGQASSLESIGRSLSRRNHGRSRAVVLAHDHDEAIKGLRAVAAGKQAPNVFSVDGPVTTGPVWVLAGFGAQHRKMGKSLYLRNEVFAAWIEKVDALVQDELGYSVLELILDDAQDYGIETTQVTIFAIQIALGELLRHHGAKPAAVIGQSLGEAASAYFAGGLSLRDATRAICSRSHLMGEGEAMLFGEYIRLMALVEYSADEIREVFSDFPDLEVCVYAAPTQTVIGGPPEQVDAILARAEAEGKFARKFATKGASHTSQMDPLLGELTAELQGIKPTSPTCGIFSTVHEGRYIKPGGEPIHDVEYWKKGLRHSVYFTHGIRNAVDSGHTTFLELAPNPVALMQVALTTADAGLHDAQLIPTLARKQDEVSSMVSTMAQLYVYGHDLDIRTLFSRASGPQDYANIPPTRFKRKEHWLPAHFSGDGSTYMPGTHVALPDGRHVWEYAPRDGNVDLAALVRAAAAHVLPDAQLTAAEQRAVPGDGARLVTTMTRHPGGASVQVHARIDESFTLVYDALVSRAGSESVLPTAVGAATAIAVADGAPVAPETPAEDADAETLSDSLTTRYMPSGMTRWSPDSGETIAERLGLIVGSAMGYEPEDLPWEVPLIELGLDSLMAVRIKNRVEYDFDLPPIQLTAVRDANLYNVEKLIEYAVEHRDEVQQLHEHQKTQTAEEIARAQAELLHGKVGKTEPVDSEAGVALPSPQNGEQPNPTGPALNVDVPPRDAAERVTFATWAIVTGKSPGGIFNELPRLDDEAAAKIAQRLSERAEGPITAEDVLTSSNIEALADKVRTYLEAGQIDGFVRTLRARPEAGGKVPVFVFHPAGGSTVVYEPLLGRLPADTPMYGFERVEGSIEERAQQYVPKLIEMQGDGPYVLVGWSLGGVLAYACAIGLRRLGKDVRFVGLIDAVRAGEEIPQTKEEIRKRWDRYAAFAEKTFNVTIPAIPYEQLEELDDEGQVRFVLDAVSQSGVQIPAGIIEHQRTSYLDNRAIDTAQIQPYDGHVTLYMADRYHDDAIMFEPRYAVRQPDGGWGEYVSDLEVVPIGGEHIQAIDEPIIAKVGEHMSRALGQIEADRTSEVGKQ

MtTrpRS: 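Tryptophan-tRNA ligase, Mycobacterium tuberculosis (UniProt P9WFT3). Enzyme assay of tryptophanyl-tRNA synthetase; the read-out is not stated. Tested at 10 µM. Higher most likely means stronger inhibition; the record gives no direction and few retests gave an IC50. Of about 65,000 compounds tested this way, about 64 (0.098%) reached 50% or more in at least one test.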
Toxoplasma: 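Assay of Toxoplasma gondii numbers, read through their beta-galactosidase reporter with a colour substrate. Compounds at 10 µM. Higher reads as fewer parasites (inferred from which compounds were picked for retests). Size under these conditions: about 67,000 compounds, about 260 of them at 50% or above in at least one test.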
ClpP1P2: 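ClpP1P2, Mycobacterium tuberculosis (UniProt P9WPC5 and UniProt P9WPC3). Protease assay of ClpP1P2, read by the AMC dye that it sets free. Tested at 50 µM. Higher reads as stronger inhibition, judged from the few compounds that gave an IC50. Most other retested compounds had strongly negative values. About 69,000 compounds were tested under these conditions; 0.015% (about 10) showed 50% or more at least once.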
CoaBC: 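Coenzyme A biosynthesis protein CoaBC, Mycobacterium tuberculosis (UniProt P9WNZ1). Enzyme assay of CoaBC with a phosphate dye (Biomol Green) read at 650 nm. Tested at 30 µM. Direction is inferred from only a few compounds that gave an IC50; most scored high, so higher reads as stronger inhibition. Most strong results did not repeat in a second test. About 67,000 compounds were tested under these conditions; 0.06% (about 40) showed 50% or more at least once.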
Pks13 thioesterase: 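Polyketide synthase Pks13, Mycobacterium tuberculosis (UniProt I6X8D2). Enzyme assay of the thioesterase domain of polyketide synthase 13; the read-out is not stated. Concentration: 30 µM. Higher reads as stronger inhibition (inferred from which compounds were picked for retests). Of about 67,000 compounds tested this way, about 300 (0.46%) reached 50% or more in at least one test.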

Values are the deposited “Percent Effect”, in %.
How 0% and 100% were set is not recorded. Most values in the screen are low, and negative values occur.
The compounds are a random part of those screened.
Two or more numbers in one place are separate tests of the same structure; such repeats can differ widely.
A dash means the value is not listed here; it may have been measured.

Compound,MtTrpRS,Toxoplasma,ClpP1P2,CoaBC,Pks13 thioesterase
c1ccc(COc2ccccc2NC2CCOCC2)nc1,-6.155,8.414,1.648,-,-29.33
CCCNC(=O)CCNc1cncc(-n2nc(C)cc2C)n1,5.686,-9.719,-37.35,1.018,51.98
CN(Cc1n[nH]c(=O)n1Cc1cccs1)S(C)(=O)=O,-2.445,-1.644,-13.13,0.8783,-2.104
O=C1NCCN1C1CCN(Cc2coc(-c3ccccc3)n2)CC1,11.96,-46,-28.05,4.215,-
c1ccc2[nH]c(C3CCN(Cc4nc(C5CC5)no4)CC3)cc2c1,-3.152,-7.192,-2.175,-0.7968,-3.163
Cc1csc(N2CCCN(C(=O)Cn3cncn3)CC2)n1,-9.032,6.733,-2.749,5.867,3.73
[H][C@@]12CCN(C[C@@H]1CN1CCc3ccccc31)[C@@H](CNC(=O)COC)C2,-,-4.289,-,-,-
Cn1ncc2c1NC(=O)CC2c1ccc(F)cc1 (stereo unspecified),2.867,6.591,-0.512,12.97,-1.771
Cc1noc(C)c1CN1CCO[C@H]2CN(C(=O)N3CCCC3)C[C@H]21,-1.256,-,9.475,12.1,-0.7925
COc1ccc(S(=O)(=O)NC(=O)COC2CCCCC2)cc1,-3.505,12.05,-2.636,-1.677,-6.652
CC(=O)c1ccc(NC(=O)NC(C(=O)N(C)C)C(C)C)cc1 (stereo unspecified),-2.477,-13.58,6.505,-,-6.579
O=C1COC2(CCN(Cc3cccnc3)CC2)CN1c1ccccc1,-,-,10.89,1.481,-13.35
COc1ccc(NC(=O)Cc2c(C)nc3c(c2C)c(=O)[nH]n3C)cn1,5.473,-2.579,-2.847,5.618,-35.05
COc1cc2c(cc1CNCc1ccnc(-n3cccn3)c1)OC(C)C2.Cl (stereo unspecified),-,-21.71,-,-,-
CCOc1nc2cnccc2n(CC(=O)NCCc2ccccc2)c1=O,-3.375,9.182,14.76,2.527,-8.119
CC(CCc1ccco1)NC(=O)Nc1cc(C(F)(F)F)c[nH]c1=O (stereo unspecified),-0.4873,2.825,2.814,4.174,-10.84
CN(CC(=O)Nc1cccnc1)CC1CCCN1c1cccnn1 (stereo unspecified),6.226,0.1608,-0.8885,-24.6,-14.89
Cc1cnc(N2CCCC3(CCOCC3)C2)nc1,2.532,-32.55,1.237,11.79,-14.52
Fc1cccnc1O[C@@H]1CN(Cc2ccco2)[C@@H]2CCCO[C@@H]21,0.2766,-,-8.367,1.504,-2.198
Cc1ccc(CNC(=O)COc2ccc3c(c2)OCC3O)cc1 (stereo unspecified),2.8,0.2436,-5.819,49.13 and 13.76,-17.03
[H][C@@]12CCN(C(=O)c3ccccc3)[C@]1([H])C(=O)N(Cc1ccccc1)C(=O)N2,-,10.63,-,-,-
CCS(=O)(=O)N1CCc2c(CN3CCOCC3)cncc2C1,-,-,4.279,-1.22,5.672
Cc1nn(C)c(N(C)C)c1CNC1CCc2c(F)cccc21 (stereo unspecified),1.101,-,29.9,0.5319,-18.92
CN(C)c1cccc(C2CCCN2c2nc3c(cnn3C)c(=O)[nH]2)c1 (stereo unspecified),10.29,-1.125,-1.52,12.3,-10.19
Cc1nc(CNC(=O)Nc2c(C)n[nH]c2C)cs1,-1.738,0.459,1.296,3.185,-26.46
O=C(O)C(F)(F)F.[H][C@@]12CN(C(=O)Cc3ccccc3)C[C@]1([H])OCCN2CC1CCCO1 (stereo partly specified),-,-3.107,-,-,-
COCCn1cnnc1Cn1ccnc1-c1ccccc1C,-0.2366,-9.936,-6.34,0.6274,-15.77
Cc1ccc(CNC(c2cccc(F)c2)c2nccn2C)o1.Cl (stereo unspecified),-,-14.49,-,-,-
O=C(O)C1(Oc2cccc(F)c2)CCN(C2CCOCC2)CC1,3.042,6.087,-8.611,-3.133,5.058
Cn1cccc1C(=O)N1CCN2C[C@H](Oc3cccnc3)C[C@H]2C1,2.931,-,5.634,7.856,-0.9963
COc1ccc(C2=C(C)C(N3CCc4ccccc4C3)=NS2(=O)=O)cc1,13.78,-5.322,3.22,-3.929,-5.076
O=c1[nH]c2nc(NC3CC3)ncc2c(=O)n1-c1ccc(F)cc1,-2.918,-6.575,-4.404,2.384,-8.511
CN(C)CCN1CCC2(CC1)CN(Cc1cccnc1)C(=O)CO2,-,-,7.861,5.679,-18.32
Clc1ccccc1-c1cc(CNc2ncnc3c2CCNCC3)no1,-1.728,22.17,-20.78,2.427,0.07189
NCCn1cc(C(=O)NCc2ccccc2-n2cccn2)nn1,-1.575,10.91,-8.853,6.138,-33.08
COc1cccc(CN2CCCCCC2c2cccc(F)c2)c1O (stereo unspecified),1.555,13.34,-9.276,-0.3632,20.64
CCS(=O)(=O)CCSc1cccc(C#N)c1,8.228,2.481,2.531,-2.755,-13.59
CCC[C@H]1CN(CCS(C)(=O)=O)C[C@@H]1NC(=O)c1cc[nH]n1,-0.3882,-5.086,-2.371,8.132,5.29
COc1cccc(CN(C)C(=O)CCC(=O)c2ccc(Cl)cc2)c1OC,0.9046,8.121,-2.799,-6.667,-4.252
COCc1nn(C(C)C)c2c1CCN(Cc1cccs1)C2,1.727,-,6.443,5.806,-17.2
[H][C@@]12C[C@@H](OCc3ccccn3)CN1CCN(C(=O)c1ccsc1)C2,-,-23.34,-,-,-
COc1ncccc1NC(=O)C1CCN(S(C)(=O)=O)CC1,3.118,1.8,3.697,1.687,-7.295
O=C(Cc1ccccn1)N1CCC2(CC1)CC(Oc1ccccn1)CO2 (stereo unspecified),1.762,-,7.662,1.813,-20.33
CCc1ccc2c(c1)C(CCNC(=O)CSC(F)(F)F)C(=O)N2 (stereo unspecified),0.3119,-0.3482,-10.43,4.032,13.68
CCc1nn(C)c(Cl)c1CN1C[C@H](NC(=O)CCO)[C@@H](C(C)C)C1,-4.376,2.015,2.307,3.823,-22.83
CC(NC(=O)c1nc(=O)[nH][nH]1)c1ccc(OCC2CC2)c(F)c1 (stereo unspecified),11.55,-1.056,-11.45,-4.993,-13.69
Cc1nc(S(=O)(=O)N2CCSCC2)cn1C,-6.118,-0.134,-8.618,-0.9709,-31.28
CC(=O)Nc1ccc(Cl)c(C(=O)N(C)C(C)c2ccncn2)c1 (stereo unspecified),1.583,-0.05596,-1.848,8.249,-19.16
O=S(=O)(C1CC1)N1CCn2c(Cn3cccn3)cnc2C1,0.7757,-5.964,2.242,10.83,-31.02
CCn1cc(C(=O)Nc2ccc(C)cc2C(=O)OC)cn1,4.4,3.851,3.23,-5.691,-22.9
Cc1nn(C)cc1C1=NS(=O)(=O)N(C)C(C(=O)Nc2ccc(Cl)cc2)=C1,-5.639,-,15.32,-2.138,-
O=C(NC1CCS(=O)(=O)c2ccccc21)c1cccs1 (stereo unspecified),-4.68,4.204,7.168,8.654,-24.89
O=C(NCCn1ccnc1)N1CCN(Cc2ccsc2)CC1,22.19,-3.386,-24.19,0.9558,-39.78

The first 5 entries again:

- c1ccc(COc2ccccc2NC2CCOCC2)nc1 | MtTrpRS: -6.155%; Toxoplasma: 8.414%; ClpP1P2: 1.648%; Pks13 thioesterase: -29.33%
- CCCNC(=O)CCNc1cncc(-n2nc(C)cc2C)n1 | MtTrpRS: 5.686%; Toxoplasma: -9.719%; ClpP1P2: -37.35%; CoaBC: 1.018%; Pks13 thioesterase: 51.98%
- CN(Cc1n[nH]c(=O)n1Cc1cccs1)S(C)(=O)=O | MtTrpRS: -2.445%; Toxoplasma: -1.644%; ClpP1P2: -13.13%; CoaBC: 0.8783%; Pks13 thioesterase: -2.104%
- O=C1NCCN1C1CCN(Cc2coc(-c3ccccc3)n2)CC1 | MtTrpRS: 11.96%; Toxoplasma: -46%; ClpP1P2: -28.05%; CoaBC: 4.215%
- c1ccc2[nH]c(C3CCN(Cc4nc(C5CC5)no4)CC3)cc2c1 | MtTrpRS: -3.152%; Toxoplasma: -7.192%; ClpP1P2: -2.175%; CoaBC: -0.7968%; Pks13 thioesterase: -3.163%

From ChEMBL document CHEMBL3988442, “University of Dundee, Small-Polar-MMV Screening Library” (2021).